# Reference: the supplement of paper PMC7238544
# Counter-ions that a name gives are not always drawn. ± gives the standard deviation of the averaged measurements. This is one part of the list. The data scatter; read single values as rough.
# Experiments:
# [1] = tested on: hAMSC donor 1; experiment: Hoechst total cell count ratio vs vehicle control; higher = more cells (less toxicity)
# [2] = tested on: hAMSC donor 2; experiment: as above
# [3] = tested on: hAMSC donor 1; experiment: transgenic luciferase activity (RLU/mg protein) fold change vs vehicle control (ratio); higher = more transgene expression
# [4] = tested on: hAMSC donor 1; experiment: transfection efficiency (EGFP+ cells / Hoechst count) fold change vs vehicle control (ratio); hAMSC are human adipose-derived mesenchymal stem cells given an EGFP-luciferase plasmid by lipofection; higher = enhanced transfection
# [5] = tested on: hAMSC donor 2; experiment: as above
# [6] = priming compound concentration 0.2 µM
# [7] = priming compound concentration 1.7 µM
# [8] = priming compound concentration 13 µM
Structure (SMILES),"Hoechst total cell count ratio [1, 6]","Hoechst total cell count ratio [1, 7]","Hoechst total cell count ratio [1, 8]","Hoechst total cell count ratio [2, 6]","Hoechst total cell count ratio [2, 7]","Hoechst total cell count ratio [2, 8]","transgenic luciferase activity [3, 7]","transfection efficiency [4, 6]","transfection efficiency [4, 7]","transfection efficiency [4, 8]","transfection efficiency [5, 6]","transfection efficiency [5, 7]","transfection efficiency [5, 8]","transgenic luciferase activity [3, 8]","transgenic luciferase activity [3, 6]"
NCC(O)c1ccc(O)c(O)c1 (racemic) [(+/-)-Norepinephrine hydrochloride],1.33 ± 0.3,1.11 ± 0.18,1.19 ± 0.066,0.785 ± 0.088,0.968 ± 0.24,1.11 ± 0.073,0.737 ± 0.22,1.08 ± 0.18,0.867 ± 0.09,1.03 ± 0.22,1.36 ± 0.23,1.35 ± 0.42,1.27 ± 0.3,–,–
CN1CCc2cc(Cl)c(O)cc2[C@@H](c2ccccc2)C1,1.29 ± 0.31,1.03 ± 0.094,1.21 ± 0.06,1.21 ± 0.042,1.22 ± 0.028,1.21 ± 0.11,–,1.13 ± 0.26,1.24 ± 0.12,1.32 ± 0.31,1.05 ± 0.064,0.992 ± 0.11,1.22 ± 0.13,1.19 ± 0.84,–
CN(C)CC/C=C1/c2ccccc2COc2ccc(CC(=O)O)cc21 [Olopatadine hydrochloride],1.36 ± 0.27,1.18 ± 0.093,1.06 ± 0.17,0.961 ± 0.34,1.36 ± 0.11,1.37 ± 0.071,–,1.07 ± 0.28,1.04 ± 0.39,1.45 ± 0.51,1.28 ± 0.57,1.13 ± 0.15,0.799 ± 0.1,1.18 ± 0.22,–
Nc1nnc(-c2cccc(Cl)c2Cl)c(N)n1 [Lamotrigine],1.15 ± 0.075,1.08 ± 0.061,1.08 ± 0.016,1.23 ± 0.094,0.647 ± 0.047,0.814 ± 0.22,–,0.758 ± 0.025,1.15 ± 0.21,0.864 ± 0.46,1.01 ± 0.26,1.29 ± 0.27,1.08 ± 0.061,0.559 ± 0.25,–
CCn1cc(C(=O)O)c(=O)c2cc(F)c(N3CCNCC3)cc21 [Norfloxacin],1.31 ± 0.23,1.29 ± 0.13,1.33 ± 0.03,1 ± 0.19,1.04 ± 0.071,1.06 ± 0.24,0.477 ± 0.32,1.51 ± 0.15,0.8595 ± 0.0082,1.1 ± 0.17,1.15 ± 0.18,1.01 ± 0.37,1.02 ± 0.28,–,–
O=C(c1ccc(F)cc1)C1CCN(CCn2c(=S)[nH]c3ccccc3c2=O)CC1 [Altanserin hydrochloride],1.27 ± 0.12,1.38 ± 0.079,1.14 ± 0.11,1.03 ± 0.034,1.22 ± 0.18,1.15 ± 0.18,–,1.11 ± 0.13,1.13 ± 0.25,1.23 ± 0.63,1.2 ± 0.2,0.987 ± 0.31,1.1 ± 0.12,–,0.996 ± 0.29
COC(=O)C1=C(C)NC(C)=C(C(=O)OC)C1c1ccccc1[N+](=O)[O-] [Nifedipine],1.46 ± 0.12,1.45 ± 0.089,1.32 ± 0.078,0.963 ± 0.17,1.08 ± 0.14,1.25 ± 0.22,–,0.842 ± 0.088,0.949 ± 0.12,0.887 ± 0.098,1.19 ± 0.23,1.24 ± 0.025,1.13 ± 0.36,–,0.862 ± 0.41
C[C@H]1C[C@H]2[C@@H]3CCC4=CC(=O)C=C[C@]4(C)[C@@]3(Cl)[C@@H](O)C[C@]2(C)[C@@]1(O)C(=O)CO [Beclomethasone],1.35 ± 0.24,1.42 ± 0.23,1.29 ± 0.12,1.4 ± 0.16,1.45 ± 0.14,1.39 ± 0.32,–,1.16 ± 0.42,1.53 ± 0.43,1.69 ± 0.43,1.18 ± 0.44,1.22 ± 0.38,1.31 ± 0.36,6.78 ± 0.88,–
